{"source": "patent US8673943B2", "about": "“Fluorinated derivatives of deferiprone” (Apotex Technologies Inc., priority 2007, dated 2014)", "key": {"[1]": {"test": "Chemical stability studies in aqueous media, monitored by HPLC", "type": "physicochemical", "details": "aqueous 0.01 N HCl; de-ionized water pH 5.6; 50 mM phosphate buffer pH 7.4; aqueous 0.01 N NaOH; room temperature", "method": "(2) de-ionized water at pH 5.6;\n(3) 50 mM phosphate buffer at pH 7.4; and […]"}, "[2]": {"details": "prior-art / published chelators; 1×10^−5 M chelator and 1×10^−6 M Fe(III); cited from earlier work"}}, "note": "Some entries share one result that the patent states for a list of compounds. For some assays here: For at least one compound, name, drawing or mass did not settle the structure.", "data": [{"smiles": "Cc1cc(=O)c(O)c(CC(F)(F)F)n1C", "note": "[Apo6762, 3-hydroxy-1,6-dimethyl-2-(2,2,2-trifluoro-ethyl)-1H-pyridin-4-one]", "values": [{"measurement": "time stable in all the four media", "setting": "[1]", "result": "at least 8 hrs"}]}, {"smiles": "O=C(O)c1ccc(-n2nc(-c3ccccc3O)nc2-c2ccccc2O)cc1", "note": "[deferasirox]", "values": [{"measurement": "pFe(III) / pFe^3+", "setting": "[2]", "result": "above 19"}]}]}
